Experimental data reported in paper doi:10.1101/2022.06.03.494746.

B1: RH12 (protein, UniProt Q9M2E0 1-498)
chain: MNTNRGRYPPGVGTGRGAPPNPDYHQSYRQQQPPQDQQYVQRGYSQNPQQMQLQQQHQQQQQQQQWSRRPQLPGNASNANEVVQQTTQPEASSDANGQDWKATLRLPPPDTRYQTADVTATKGNEFEDYFLKRDLLKGIYEKGFEKPSPIQEESIPIALTGSDILARAKNGTGKTGAFCIPVLEKIDPNNNVIQAMILVPTRELALQTSQVCKELSKYLNIQVMVTTGGTSLRDDIMRLHQPVHLLVGTPGRILDLTKKGVCVLKDCAMLVMDEADKLLSAEFQPSLEELIQFLPQNRQFLMFSATFPVTVKAFKDRHLRKPYVINLMDQLTLMGVTQYYAFVEERQKVHCLNTLFSKLQINQSIIFCNSVNRVELLAKKITELGYSCFYIHAKMVQDHRNRVFHEFRNGACRNLVCTDLFTRGIDIQAVNVVINFDFPRTSESYLHRVGRSGRFGHLGLAVNLVTYEDRFKMYQTEQELGTEIKPIPSNIDQAIYCQ
B2: VPS15 (protein, UniProt Q9M0E5 1-1494)
chain: MGNKIARTTQVSATEYYLHDLPSSYNLVLKEVLGRGRFLKSIQCKHDEGLVVVKVYFKRGDSIDLREYERRLVKIKDVFLSLEHPHVWPFQFWQETDKAAYLVRQYFYSNLHDRLSTRPFLSLVEKKWLAFQLLLAVKQCHEKDICHGDIKCENVLLTSWNWLYLADFASFKPTYIPYDDPSDFSFFFDTRGQRLCYLAPERFYEHGGETQVAQDAPLKPSMDIFAVGCVIAELFLEGQPLFELAQLLAYRRGQHDPSQHLEKIPDPGIRKMILHMIQLEPEARLSAEDYLQNYVGVVFPNYFSPFLHTLYCCWNPLPSDMRVATCQGIFQEILKKMMENKSGDEIGVDSPVTSNPMNASTVQETFANHKLNSSKDLIRNTVNSKDEIFYSISDALKKNRHPFLKKITMDDLGTLMSLYDSRSDTYGTPFLPVEGNMRCEGMVLIASMLCSCIRNIKLPHLRREAILLLRSCSLYIDDDDRLQRVLPYVVALLSDPTAIVRCAAMETLCDILPLVRDFPPSDAKIFPEYIFPMLSMLPEDTEESVRICYASNIAKLALTAYGFLIHSFQLSDVGVLNELNSQQISTTPASETPSHLQKANGNAQLQQLRKTIAEVVQELVMGPKQTPNVRRALLQDIGELCFFFGQRQSNDFLLPILPAFLNDRDEQLRSVFFEKIVYVCFFVGQRSVEEYLLPYIDQALSDQTEAVIVNALECLSTLCKSSFLRKRALLQMIECVYPLLCYPSQWVRRAVVTFIAASSECLGAVDSYAFIAPVIRSYLSRLPASIASEEGLLSCLKPPVTREVVYRIFEKTRNPEFMAKQRKMWYSSSPQSKDWESVDLFDKDAGELNSVECRAEQKQSVEGKKQIKSASKQPEVQGKYAEKDAKLRIPRNPRPNASNTVELRDPVYPEKLQFSGFMAPYVSGANSFIEPENIPLYSFSMDKRAATNPPVASESSLQMNSLGMGSLSVPWMDSMSKSFNLASSVPVPKLISGSFHVGTNPKQFYRVVHEPESRENDQISSAISKFQDLGVSSSSKSASVTSEDASSPADLVGEPSLSRTSVPDSGWKPRGVLVAHLQEHRSAVNDIATSSDHSFFVSASDDSTVKVWDSRKLEKDISFRSRLTYHLEGSRGMCTTMLRNSTQVVVGASDGVIHMFSIDHISRGLGNVVEKYSGIVDIKKKDVKEGALVSLLNYTADSLSGPMVMYSTQNCGIHLWDTRSDLDAWTLKANPEEGYVSSLVTSPCGNWFVSGSSRGVLTLWDLRFRVPVNSWQYPIICPIEKMCLCFLPPSVSVSTTMKPLIYVAAGCNEVSLWNAEGGSCHQVLRVANYENETDVSEFQWKLPSNKVNPKPNHRQNMSSKYRIEELNEPPPRLPGIRSLLPLPGGDLLTGGTDLKIRRWDYSSPERSYCICGPSLKGVGNDDFYELKTNTGVQFVQETKRRPLATKLTAKAVLAAAATDTAGCHRDSVQSLASVKLNQRLLISSSRDGAIKVWK
B3: Annexin 1 (ANNAT1) (protein, UniProt Q9SYT0 1-317)
chain: MATLKVSDSVPAPSDDAEQLRTAFEGWGTNEDLIISILAHRSAEQRKVIRQAYHETYGEDLLKTLDKELSNDFERAILLWTLEPGERDALLANEATKRWTSSNQVLMEVACTRTSTQLLHARQAYHARYKKSLEEDVAHHTTGDFRKLLVSLVTSYRYEGDEVNMTLAKQEAKLVHEKIKDKHYNDEDVIRILSTRSKAQINATFNRYQDDHGEEILKSLEEGDDDDKFLALLRSTIQCLTRPELYFVDVLRSAINKTGTDEGALTRIVTTRAEIDLKVIGEEYQRRNSIPLEKAITKDTRGDYEKMLVALLGEDDA
B4: ORP2A, OSBP (OXYSTEROL BINDING PROTEIN)-RELATED PROTEIN (protein, UniProt Q940Y1 1-721)
chain: MRVKELHPLCCITLESPHGINSQSPEEPVTTALTRSRSLPAKSLTGGSESETVAGILYKWTNFGKGWRSRWFLLRNGILSYSKIRRPENLNLLSPDDDVRLIGDISGERLSRMDSCSGRRKQQKTVGIVHLKVSSFRESKSDDRKFYIFTATKTLHLRTDSITDRAAWLQALASTKCIFPLRSLNGDFSFIPPKDLSISTERLKKRLHEEGMNENLVKECEQIMLSEFSEMHGQVKLLHEERTNLLDALRQLEAANLEVGASGKHEFSSLGRGKYSECSTTASSDGKQEFEDVSEEDEPSFHDTKEFFNEPNIGSESNLAISGHTDIKRRTKLPDPAEKEKGVSLWSMIKDNVGKDLTRVCLPVYFNEPISSLQKCFEDLEYSYLLDRAYEHGKSGNGLLRALNVAAFAVSGYASTEGRHCKPFNPLLGETYEADFPEKGIRFFSEKVSHHPTVIACHCEGKGWKFWGDTNLRSKFWGRSIQVEPVGVLTLEFDDGEVFQWSKVTSTIYNIILGKLYCDHHGVMQIRGNRQYSCTLKFKEQSILERNPHQVNGFVEDVAGQKAATIFGKWDDSLYYVAGDGINKSKVSDPASNASLLWKRTKPPPNVTRYNLTSFAITLNELTPGLQEILPPTDSRLRPDQRHLENGEYEKANLEKQRLERRQRMSRQLQESGWRPRWFERQGESDTFKYTGGYWEARGHRNWDDCPDIFGEFTEELADAA
B5: NEDD1 (protein, UniProt B3H5K9 1-782)
chain: MMSNLVEPSWRLLAASGGDTVKLFDVSADSGDPCVLSYTPSPGCAVNSVKWNHTNLVVASTGEDKKISLWRKNGQSLGTVPVTGKDGGDSAEECLSAISFSKKGSRYICSGGTGQIVKIWDLQRKLCIKKLKGHTSTITGVMYNCKDEHLASVSVGGDLIVHNLASGARATELKDPNGQVLRLLDYSRSSRHLLVTAGDDGTVHLWDTTGRSPKMSWLKQHSAPTAGVCFSPSNEKIIASVGMDKKLYTYDSGSRRSSSCIAYEAPFSSLAFGDNGYILVAGTSNGRVVFYDIRGKPQPVTVLHAFSNSEDVTSLSWQTSKPVIVNEKNYTSEMALLGSTVEDSVVIPDPLPSTTPSASQSAMAPGSRGVSASTVNASSVEQTPNRNHLWPSGPLGRLHALRANDSYNDDMGVFSPIIDVSSVEKWADSEGYNNKDHLVVDNKPSSLLFPSSSKGYSFGDNGSKEHPIFDWKPSSTSKQDDPRAAFSSFGSITPTASSKSEDSALTPPEAWGGDKFSEKFNQLANEKFSDKFSHLHAPSRLAVSSTGASTSGSMFSSSRDFPLSHGQTNFANASLEFPRIRDFSSTFETSSTQTDNNLPSSPLFTKGITAPGNIDSLRLSPNFTRRFSTYAERISTTSSFSDGASLSLGGSPKIKKTGSETREEVLNHLLARPETVVATEAGAMPLMNQGGLKQSQTDQQQVMGSSNFTLQLFQRTLEGTLDSFQNSIHDDVRNLHIEILRQFHMHEMEMSKVLSSILENQAEQMKELKLLRKENQELRQRL
B6: ECT4 (protein, UniProt A0A1P8AS03 1-605)
chain: MSTVAPPADQAADVLKKLSLDSKSRTLEIPEPTKKTGVYQYGAMDSNGQVPSFDRSLSPMLPSDALDPSVFYVPNVYQQPYYYGYGSDYTGYTNSESVDMTSGAYGENASLVYPQGYGYAAFPYSPATSPAPQLGGDGQLYGAQQYQYPFPLTASSGPFASSVPASTQSKLSTNKAANSASAGIPKGMNGSAPVKPLNQSALYGNSALGGGLAAGYQDPRYSYDGFYTPVSWHDGSNFSDVQRSVSGSGVASSYSKANNNVPATRNQNSSSNSHYTSMYQPASMTGYAAQGYYDRVSPNKSYGQYGSTVRSGMGYGSSGYGSRTNERGWLNTDNKYRSRGRGNSYFYGNENIDGLNELNRGPRAKGTKATEEVSSEEVKKQTFDESNTEETVTCVLPDREECNRDDFPVEYKDAKFFIIKSYSEDDVHKSIKYNVWASTPNGNKKLDAAYQEAQQKSSGCPVFLFFSVNASGQFIGLAEMKGPVDFNKNIEYWQQDKWTGSFPLKWHILKDVPNSLLKHITLEYNENKPVTNSRDTQEVKLEQGLKVVKIFKEHNSKTCILDDFSFYEARQKTILEKKAKQQQSQKQVWEGKTNDEKPGTVDSTM
B7: MLN51 (protein, UniProt Q93ZJ9 1-605)
chain: MAPDGVEDSDYESDPDELNRSLATRRREASDDDEDDEEADDHDKLRAAIQIHSDEHSGVVVVDSDDNEGLHIEDSYGDDDDEEEDGDYGQVDDHVEYIADNNDKTIVAGNGTDDSAATDLVDGEEQKKKEPFAVPTAGAFYMHDDRFQELDAASNRRMRGGRRLWQSRDERKWGHDKFEEMNTQKQQYDRRTSRGRGRGRGQGRGQDRGQSRGNNSKEFTGNGHQNQFPKAVTRGRGARRYEVALRNGNQAPSVQTKQSQNSSVEVSHVDLGRPPTETATLETEAIQAKKNVFASSLNSASPPFYPSRSNNNLAQKDVQAGMGRLHINENPNPTGKKFGNTKSSSLWGRTAQTTSHGRGVPPHGQVLYQQSPNQGDKVSSPMQIRGMPKGTDQSCTQLPGQVFNQHSAVISLLPSSPPKTGSSENPYLSGEIESAVETGALVAKGKGSLQPSGRGSFMYGGTQFMGPAGMAAGHGNPNFPAFLPVMQFGGQHGGVPTFGMALPGYFQPEHGTGNPEMTWLPILAGPGALGGSYCPPYTVLDGSYQADKPGLPSSAGSSSQENSSNNPNDEEPMERPEVTNNGNSQRSNSNPNKQPRRYSEMSFSK
B8: FLXL1 (protein, UniProt Q93V84 1-331)
chain: MSGRNRGPPPPSMKGGSYSGLQAPVHQPPFVRGLGGGPVPPPPHPSMIDDSREPQFRVDARGLPPQFSILEDRLAAQNQDVQGLLADNQRLAATHVALKQELEVAQHELQRIMHYIDSLRAEEEIMMREMYDKSMRSEMELREVDAMRAEIQKIRADIKEFTSGRQELTSQVHLMTQDLARLTADLQQIPTLTAEIENTKQELQRARAAIDYEKKGYAENYEHGKIMEHKLVAMARELEKLRAEIANSETSAYANGPVGNPGGVAYGGGYGNPEAGYPVNPYQPNYTMNPAQTGVVGYYPPPYGPQAAWAGGYDPQQQQQQQPPPQGQGHR
B9: VAP27-1 (protein, UniProt Q8VZ95 1-256)
chain: MSNIDLIGMSNRDLIGMSNSELLTVEPLDLQFPFELKKQISCSLYLTNKTDNNVAFKVKTTNPKKYCVRPNTGVVLPRSTCEVLVTMQAQKEAPSDMQCKDKFLLQGVIASPGVTAKEVTPEMFSKEAGHRVEETKLRVTYVAPPRPPSPVHEGSEEGSSPRASVSDNGHGSEFSFERFIVDNKAGHQENTSEARALITKLTEEKQSAIQLNNRLQRELDQLRRESKKSQSGGIPFMYVLLVGLIGLILGYIMKRT

These binders were tested against DCP1-TurboID-6xHis-3xFLAG (Arabidopsis) (assay: proximity labelling).

binding, binds:
B1
B2
B3
B4
B5
B6
B7
B8
B9

These are yes or no findings as the source states them, for the method shown. In cells and extracts the contact can be indirect. These calls come from enrichment with a bait or labelling near it, and not all partners need be listed.
